# Library screening results

Chains of the proteins cited; added tags and fusions are not shown.
UniProt E9BF75, entry or part of it: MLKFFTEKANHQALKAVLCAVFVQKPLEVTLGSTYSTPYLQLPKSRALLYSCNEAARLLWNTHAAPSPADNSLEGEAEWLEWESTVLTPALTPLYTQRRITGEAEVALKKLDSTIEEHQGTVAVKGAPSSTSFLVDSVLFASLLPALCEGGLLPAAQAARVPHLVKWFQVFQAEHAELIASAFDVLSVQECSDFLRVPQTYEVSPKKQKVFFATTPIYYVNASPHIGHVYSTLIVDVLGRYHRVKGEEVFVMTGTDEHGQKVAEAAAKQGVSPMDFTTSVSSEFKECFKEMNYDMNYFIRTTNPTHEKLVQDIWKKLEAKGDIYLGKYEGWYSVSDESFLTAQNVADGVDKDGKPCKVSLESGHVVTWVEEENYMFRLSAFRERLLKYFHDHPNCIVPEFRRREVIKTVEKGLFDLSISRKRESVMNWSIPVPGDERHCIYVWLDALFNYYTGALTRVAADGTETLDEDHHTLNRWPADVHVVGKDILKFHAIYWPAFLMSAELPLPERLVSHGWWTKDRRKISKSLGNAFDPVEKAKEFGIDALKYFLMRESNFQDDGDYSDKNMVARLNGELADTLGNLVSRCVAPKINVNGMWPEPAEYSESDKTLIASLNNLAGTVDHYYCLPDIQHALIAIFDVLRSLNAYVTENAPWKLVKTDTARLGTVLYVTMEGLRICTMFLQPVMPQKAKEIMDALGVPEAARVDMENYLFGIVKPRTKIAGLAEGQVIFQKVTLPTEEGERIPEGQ

All values are in %.
The controls that fix the scale are not given in the record; negative values are as filed.
The compounds are a random part of those screened.
A dash means the value is not listed here; it may have been measured.

Mtb heat-shock: 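Assay on Mycobacterium tuberculosis, filed only as a heat shock assay from Cornell; the read-out is not stated. The concentration is filed as 10 mM, unlikely as a test dose, so the dose is not known. Direction is inferred from retests: higher values go with stronger inhibition. Size under these conditions: about 69,000 compounds, about 930 of them at 50% or above in at least one test.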
LdMetRS: 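Primary screen of methionyl-tRNA synthetase; the read-out is not stated. Target: Methionyl-tRNA synthetase (putative), Leishmania donovani (UniProt E9BF75). The test concentration is not given. Values are per cent inhibition. Of about 68,000 compounds tested this way, about 24 (0.035%) reached 50% or more in at least one test.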
Mtb growth Cornell: 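Whole-cell assay for inhibitors of Mycobacterium tuberculosis growth, labelled Cornell in the record; the read-out is not stated. The concentration is filed as 10 mM, unlikely as a test dose, so the dose is not known. The record gives no direction; compounds strong in two other growth screens of this library score well above the rest, so higher reads as stronger inhibition. About 53,000 compounds were tested under these conditions; 1.7% (about 900) showed 50% or more at least once.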

| Compound | Mtb heat-shock | LdMetRS | Mtb growth Cornell |
|---|---|---|---|
| `CCCc1nnsc1C(=O)NCC(O)c1cccs1` (stereo unspecified) | -0.6689% | 11.27% | 21.52% |
| `COc1ccc(COCC(O)CNC(=O)c2cc(C)oc2C)cc1` (stereo unspecified) | 5.218% | 19.77% | -11.36% |
| `CN(Cc1nc2c(cnn2C)c(=O)[nH]1)Cc1ccccc1Cl` | -3.903% | 11.49% | 36.55% |
| `CSCC[C@H]1CN2CCC[C@H]2CN1Cc1cn(C)nc1C` | - | 16.18% | - |
| `Cc1noc(C(C)N2CCN(CCc3ccncc3)CC2)n1` (stereo unspecified) | -23.34% | 6.183% | -6.632% |
| `O=C(NCC1(c2ccc(F)cc2)CC1)N1CCC2(CCOC2)C1` (stereo unspecified) | 1.577% | 12.4% | 12.72% |
| `COc1ccc(C)cc1CC(=O)NS(=O)(=O)c1ccc(C(N)=O)cc1` | 24.43% | 11.36% | - |
| `COc1cc(C2(C(=O)NCCn3ccnc3)CCCC2)ccc1C` | -4.417% | 13.69% | 7.022% |
| `CN1CCN(Cc2cn3c(n2)CN(C(=O)c2ccco2)CC3)CC1` | -6.103% | 14.66% | 16% |
| `COCCN1C[C@H]2[C@@H](C1)N(Cc1cnn(C)c1)CC[C@H]2OC` | - | 18.73% | - |
| `O=C(Cc1ccccn1)N1CCC(c2noc(-c3ccncc3)n2)CC1` | -10.88% | 5.145% | -28.35% |
| `Cc1cnc(C(=O)N2CCOCC2C)cn1` (stereo unspecified) | 13.55% | 8.709% | -8.882% |
| `CN(C)C(=O)N1C[C@@H]2CC[C@H](C1)N(C(=O)c1c(Cl)cccc1Cl)C2` | - | 16.25% | - |
| `O=C(CN1CCC(c2ccccc2)C1)NCC(F)(F)F` (stereo unspecified) | 4.246% | 16.94% | - |
| `O=C(Cn1ccc2sccc2c1=O)NCCC1=CCCCC1` | 5.818% | 10.59% | 10.8% |
| `O=C(NCc1cc[nH]n1)NC1CCCN(c2ncccn2)C1` (stereo unspecified) | -28.49% | 15.49% | -4.924% |
| `Cc1nc(CN2CCCN(C(=O)c3ccccn3)CC2)oc1C` | 2.492% | 11.81% | - |
| `c1cc(C2CCN(C3CCCCC3)C2)n[nH]1` (stereo unspecified) | -6.457% | 9.346% | -17.24% |
| `CC(CO)NC(=O)c1ccc(NCc2ccccc2)cc1` (stereo unspecified) | 18.18% | 14.63% | 5.961% |
| `O=C(Cc1ccc(Br)cc1)N1CC(S(=O)(=O)C2CCCCC2)C1` | 11.69% | 10.07% | 15.14% |
| `CC(c1ccco1)N(C(=O)COc1ccc(C#N)cc1)C1CC1` (stereo unspecified) | 16.95% | 9.192% | 23.73% |
| `CC(C)NC(=O)CN1CCSC2(CCCCC2)C1` | -27.92% | 2.594% | 7.408% |
| `Cc1cc(CN(C)C(=O)CN2CC3(CCNCC3)OC2=O)no1` | 16.22% | 13.12% | 23.1% |
| `COc1cccc(N2CCN(Cc3ccc4ccn(C)c4c3)CC2=O)c1` | 20.25% | 29.86% | 57.23% |
| `O=C(NC1CC1)C1CCN(c2cccc(C(F)(F)F)n2)CC1` | 2.788% | 17.01% | -11.75% |
| `Cc1cccc(COC[C@]23COC[C@H]2CN(c2ncccn2)C3)n1` | - | 8.667% | - |
| `COc1cccn(C(C)C(=O)NC2CCCC2)c1=O` (stereo unspecified) | 20.22% | 15.32% | -26.66% |
| `CC(C)(C)CC(=O)N1CC[C@@H](CC(=O)O)[C@@H](CCN2CCCCC2)C1` | -1.974% | 14.84% | - |
| `Cc1nc(CNCC(O)COc2ccc3c(c2)OCO3)cs1` (stereo unspecified) | -11.63% | 6.283% | -13.94% |
| `CCN(C)Cc1nc(-c2ccccc2NS(C)(=O)=O)oc1C` | 1.178% | 8.156% | 21.16% |
| `Cc1ccc(CN(C)C(=O)CCn2c(=O)n(C)c3ccccc32)o1` | -24.76% | 6.63% | - |
| `Cc1ccc(CN2C[C@@H]3COC[C@@H](CC(=O)N4CCOCC4)[C@@H]3C2)s1` | - | 21.04% | - |
| `CC(NC(=O)NCCCn1cncn1)c1ccccc1F` (stereo unspecified) | -10% | 12.65% | - |
| `O=C1OCCN1CCNC(=O)C1(N2CCCCC2)Cc2ccccc2C1` | -9.325% | 6.723% | 4.915% |
| `CCc1ccc(NC(=O)N2C[C@H]3C[C@H](C(=O)NC4CCC4)[C@@H](C2)O3)cc1` | - | 4.396% | - |
| `CCOc1ccc(C(=O)N2CCCC(c3nccn3C)C2)cc1OCC` (stereo unspecified) | 9.145% | -10.6% | 9.625% |
| `CC(C)c1noc(CCNC(=O)NCC2COc3ccccc3O2)n1` (stereo unspecified) | -18.6% | -4.298% | 8.415% |
| `CCc1ncc(C(=O)NCCN(C)S(C)(=O)=O)cn1` | -9.229% | 1.023% | -11.03% |
| `CCc1nc(C2CCCN(C(=O)CCn3ccccc3=O)C2)no1` (stereo unspecified) | 9.939% | 1.02% | - |
| `CCc1cc(=O)n(CC(=O)N2CCCCC2)c(-c2cccc(F)c2)n1` | 6.972% | 15.58% | 37.08% |
| `CN(C)Cc1nn(C)c2c1CCN(C(=O)CC1CC1)C2` | - | 3.986% | - |
| `CN(C)Cc1cncc2c1CCN(C1CCOCC1)C2` | - | 7.65% | - |
| `CC(C)n1cnnc1CN1CCC2(CCCN(C3CCCCC3)C2=O)C1` (stereo unspecified) | -19.11% | -4.908% | 11.19% |
| `CCCc1cc(CNC(=O)C2CCOc3ccccc3C2)on1` (stereo unspecified) | 12.64% | 9.63% | 8.91% |
| `Cn1cc(CN2CCc3ncnc(N4CCOCC4)c3CC2)cn1.O=C(O)C(F)(F)F.O=C(O)C(F)(F)F.O=C(O)C(F)(F)F` | -35.89% | - | 16.52% |
| `COCC1CN(C(=O)Cc2ccccn2)Cc2ncn(C)c21` (stereo unspecified) | -47.97% | 14.86% | 26.03% |
| `N#Cc1c(Cl)nsc1NCc1cccnc1OC1CCCC1` | -19.24% | 17.96% | 30.39% |

For reference, 4 entries once more:

Compound,Mtb heat-shock,LdMetRS,Mtb growth Cornell
CN(Cc1nc2c(cnn2C)c(=O)[nH]1)Cc1ccccc1Cl,-3.903%,11.49%,36.55%
CCc1ncc(C(=O)NCCN(C)S(C)(=O)=O)cn1,-9.229%,1.023%,-11.03%
O=C(Cn1ccc2sccc2c1=O)NCCC1=CCCCC1,5.818%,10.59%,10.8%
CCc1ccc(NC(=O)N2C[C@H]3C[C@H](C(=O)NC4CCC4)[C@@H](C2)O3)cc1,-,4.396%,-

Source: ChEMBL document CHEMBL3988442, “University of Dundee, Small-Polar-MMV Screening Library” (2021).